Source: patent publication US6030950A, “Pharmaceutical therapeutic use of glutathione derivative” (priority 1987, dated 2000)
Read-outs that look alike come from different tables or passages of the source.

Experiments:
[1] = human blood, oxygen deficiency stress, 600 mg slowly intravenously, 10 minutes after administration; n=50
Protocol: 2.2) Self-experiment on man to improve and/or normalize the redox status of the blood:
After a defined oxygen deficiency stress, the same parameters were determined in human blood as in the trial described above. In all 50 trials were carried out on different days
After that, glutathione was slowly administered intravenously in an amount of 600 mg.
Boundary conditions: Temperature of 20° C., air pressure of 758-770 mm Hg.

[2] = rabbit ear venous blood, oxygen deficiency stress, 10 mg/kg, 5-10 minutes after administration; n=30
Protocol: 2.1) Animal Experiments with rabbits to improve and/or normalize the redox status of the blood:
In 5 different rabbits, the following parameters were measured by the method and with the instrument of VINCENT in 30 experiments in venous blood:
redox potential E H or electron potential: rH2
The values were measured in the venous blood of the ear after a defined oxygen deficiency stress.
The following values were determined 5-10 minutes after the glutathione one was administered:
Boundary conditions: Temperature of 20° C., air pressure of 767 mm Hg.

N[C@@H](CCC(=O)N[C@@H](CS)C(=O)NCC(=O)O)C(=O)O [reduced glutathione, gamma-glutamyl-cysteinyl-glycine]
Ohm's resistance r [1]: 204 ± 12.3 ohm/cm^2
pH [1]: 7.23 ± 0.11
Ohm's resistance r [2]: 202 ± 14 ohm/cm^2
pH [2]: 7.15 ± 0.16
